# Reference: publication PMC10917549
# Amino acid sequences for entries named in this document (tags omitted). A change or cut given only in a name is not applied to a line headed by its entry.
# UniProt Q00987: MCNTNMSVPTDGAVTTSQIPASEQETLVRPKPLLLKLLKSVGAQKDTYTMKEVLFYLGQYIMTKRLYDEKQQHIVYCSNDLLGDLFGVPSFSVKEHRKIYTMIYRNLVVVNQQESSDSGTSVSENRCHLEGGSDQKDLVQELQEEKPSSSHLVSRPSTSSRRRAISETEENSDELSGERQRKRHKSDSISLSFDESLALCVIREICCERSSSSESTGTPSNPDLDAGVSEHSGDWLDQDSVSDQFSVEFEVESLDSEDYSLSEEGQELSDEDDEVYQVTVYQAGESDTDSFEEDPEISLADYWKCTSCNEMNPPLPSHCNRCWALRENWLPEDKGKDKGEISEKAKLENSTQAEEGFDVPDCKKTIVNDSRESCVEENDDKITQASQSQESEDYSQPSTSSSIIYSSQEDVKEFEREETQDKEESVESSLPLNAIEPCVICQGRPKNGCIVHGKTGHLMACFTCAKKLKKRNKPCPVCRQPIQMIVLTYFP
# UniProt Q5XUX0: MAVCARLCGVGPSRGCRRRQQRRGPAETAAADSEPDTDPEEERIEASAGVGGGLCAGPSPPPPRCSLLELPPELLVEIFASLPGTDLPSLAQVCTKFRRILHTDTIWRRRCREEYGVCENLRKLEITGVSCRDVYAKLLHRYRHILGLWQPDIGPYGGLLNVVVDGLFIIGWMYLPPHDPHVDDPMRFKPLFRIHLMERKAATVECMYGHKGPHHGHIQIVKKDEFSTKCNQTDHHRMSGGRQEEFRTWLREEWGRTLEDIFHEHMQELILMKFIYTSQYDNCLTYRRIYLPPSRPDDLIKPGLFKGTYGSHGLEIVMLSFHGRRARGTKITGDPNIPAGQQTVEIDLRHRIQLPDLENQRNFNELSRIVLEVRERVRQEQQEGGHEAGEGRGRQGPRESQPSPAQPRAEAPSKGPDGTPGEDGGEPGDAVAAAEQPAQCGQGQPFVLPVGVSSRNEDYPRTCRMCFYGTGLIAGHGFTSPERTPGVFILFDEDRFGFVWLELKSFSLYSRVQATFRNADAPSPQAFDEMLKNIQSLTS
# No constants are given. Whether binding was seen depends on the method and setting. Binding can be weak; no strength is given.
# Target: MDM2 (UniProt Q00987)
# Test: two-hybrid; Y2H Gold yeast; MDM2 in pGBKT7 as bait, FBXO31 or F-box-mut in PGADT7 as prey; growth and blue colour of colonies on TDO (SD/-Leu/-Trp/-His) and QDO (SD/-Leu/-Trp/-His/-Ade) after three days
substance,measurement,value
FBXO31 F-box domain mutant (from UniProt Q5XUX0),binding,binds
